The subject of the assay is P388 leukemia ip, CD2F1 mice, survival T/C. Briefly: NCI In Vivo Anticancer Drug Screen. Data for tumor model P388 Leukemia (intraperitoneal) in CD2F1 (CDF1) mice. Particulars: T/C endpoint: median survival time, higher T/C = longer survival.
The mark [1] stands for this setting: dose: 200.0 mg/kg/injection, schedule: Q01DX009 (ip), vehicle: saline.
The mark [2] stands for this setting: dose: 200.0 mg/kg/injection, schedule: Q01DX005 (ip), vehicle: saline with Tween-80.
Where [3] appears, read: dose: 240.0 mg/kg/injection, schedule: Q01DX005 (ip), vehicle: saline.
Where [4] appears, read: dose: 400.0 mg/kg/injection, schedule: Q01DX001 (ip), vehicle: Klucel (hydroxypropylcellulose) (HPC).
Setting [5] is: dose: 200.0 mg/kg/injection, schedule: Q01DX005 (ip), vehicle: Klucel (hydroxypropylcellulose) (HPC).
[6] abbreviates: dose: 100.0 mg/kg/injection, schedule: Q01DX005 (ip), vehicle: Klucel (hydroxypropylcellulose) (HPC).
Where [7] appears, read: dose: 100.0 mg/kg/injection, schedule: Q01DX005 (ip), vehicle: saline with Tween-80.
Setting [8] is: dose: 100.0 mg/kg/injection, schedule: Q01DX009 (ip), vehicle: saline.

Molecules are shown by their SMILES. The list does not hold the whole screen: it is rich in T/C values a quarter to a half above the control, in often repeated tests (any T/C) and in doses without a T/C. Other doses and runs of a compound stand elsewhere. T/C gives the treated animals as a percentage of the vehicle group. Some entries give survivors of the animals treated and no T/C: the source holds a T/C of zero for them, seemingly a mark for toxic or unscored doses. Some doses without a T/C left all or most animals alive at the check, yet need not have been tolerated: the source hardly ever lists a survival T/C far under the control, and the zero likely stands for such cases as well. Survivors were counted at the toxicity check, usually on the fifth day, unless a day is given; later deaths do not show. Schedules are NCI's codes, taken here to give the interval after Q, in days (D) or hours (H), and the number of doses after X. Some entries were tested several times; the values are given in rising order. For survival time, this PubChem deposit counts one and a half times the control or more as active, and values a quarter to a half above the control carry no call in these data; other NCI protocols may use other cut-offs. Some T/C values are followed by the survivors on the day toxicity was checked, most often the fifth; without a count, all were alive then.

The values that follow come from PubChem BioAssay AID330 (DTP/NCI, 2004).

For `O=Cc1cc(O)ccc1O`, the survivor count under setting [1] is listed as 0 of 6; the survivor count (dose: 400.0 mg/kg/injection, schedule: Q01DX009 (ip), vehicle: saline) is reported as 0 of 6; the survivor count (dose: 600.0 mg/kg/injection, schedule: Q01DX009 (ip), vehicle: saline) is given as 0 of 6.

With `CCCCOC(=O)N[C@H]1CCc2cc(OC)c(OC)c(OC)c2-c2ccc(SC)c(=O)cc21`, the T/C by setting is: (dose: 1.5 mg/kg/injection, schedule: Q01DX009 (ip), vehicle: Klucel (hydroxypropylcellulose) (HPC)) 125 % of control; (dose: 3.0 mg/kg/injection, schedule: Q01DX009 (ip), vehicle: Klucel (hydroxypropylcellulose) (HPC)) 126 and 142 % of control; (dose: 6.0 mg/kg/injection, schedule: Q01DX009 (ip), vehicle: Klucel (hydroxypropylcellulose) (HPC)) 134 % of control.

As for `CCC1=C[C@H]2CN(CCc3c([nH]c4ccccc34)[C@@](C(=O)OC)(c3cc4c(cc3OC)N(C)[C@H]3C(C(=O)NC)=C[C@]5(CC)C=CCN6CC[C@]43[C@@H]65)C2)C1`, the T/C (dose: 64.0 mg/kg/injection, schedule: Q01DX001 (ip), vehicle: other) is 126 % of control. Besides, the survivor count reads like this: (dose: 128.0 mg/kg/injection, schedule: Q01DX001 (ip), vehicle: other) 1 of 3; (dose: 256.0 mg/kg/injection, schedule: Q01DX001 (ip), vehicle: other) 0 of 3.

On to `C=CC(C)(C)c1cc2cc3c(cc2oc1=O)OC1(C)CCC(C(C)(C)O)OC1C3` (stereo not given), for which the survivor count reads like this: (dose: 50.0 mg/kg/injection, schedule: Q01DX005 (ip), vehicle: saline with Tween-80) 6 of 6; under setting [2], 0 of 6.

In the case of `Cc1ccc(C)c(CN(CCO)CCO)c1`, the survivor count under setting [3] is 1 of 6.

Regarding `Clc1nnc(-c2ccccc2)s1`, the survivor count (dose: 200.0 mg/kg/injection, schedule: Q04DX003 (ip), vehicle: Klucel (hydroxypropylcellulose) (HPC)) is listed as 0 of 6.

`CC12C(=O)C=CCC1=CCC1C2CCC2(O)C(=O)OC3(C)C4CC5(C)C(COC16OC23C5C6=O)C(=O)O4` (stereo not given): the T/C (dose: 225.0 mg/kg/injection, schedule: Q01DX009 (ip), vehicle: Klucel (hydroxypropylcellulose) (HPC)) was 132 % of control and the T/C (dose: 300.0 mg/kg/injection, schedule: Q01DX009 (ip), vehicle: Klucel (hydroxypropylcellulose) (HPC)) is 137 % of control.

For `N#Cc1ccc(N(O)C(=O)c2ccccc2)cc1`, the survivor count is, setting by setting: (dose: 100.0 mg/kg/injection, schedule: Q01DX009 (ip), vehicle: saline with Tween-80) 2 of 6; (dose: 200.0 mg/kg/injection, schedule: Q01DX009 (ip), vehicle: saline with Tween-80) 0 of 6.

With `[Cl][Pt+2][Cl].[NH-]CC([NH-])CN`, the survivor count reads like this: (dose: 100.0 mg/kg/injection, schedule: Q04DX003 (ip), vehicle: saline) 0 of 6; (dose: 200.0 mg/kg/injection, schedule: Q04DX003 (ip), vehicle: saline) 0 of 6; (dose: 400.0 mg/kg/injection, schedule: Q04DX003 (ip), vehicle: saline) 0 of 6.

With `CCOC(=O)/N=[N+](\[O-])c1ccc([N+](=O)[O-])cc1`, the survivor count reads like this: (dose: 200.0 mg/kg/injection, schedule: Q01DX001 (ip), vehicle: Klucel (hydroxypropylcellulose) (HPC)) 2 of 6; under setting [4], 0 of 6.

For the compound `O=c1cc2cccccc-2o1`, the survivor count under setting [4] was 2 of 6.

For `COc1cccc(C(c2cc3c(cc2O)OCO3)N2CCOCC2)c1O` (stereo not given), the T/C is 134 % of control (dose: 240.0 mg/kg/injection, schedule: Q01DX005 (ip), vehicle: saline with Tween-80) and 134 % of control (dose: 480.0 mg/kg/injection, schedule: Q01DX005 (ip), vehicle: saline with Tween-80).

In the case of `CCN(CC)Cc1cc(N=Nc2cc(OC)c(N=Nc3ccc([N+](=O)[O-])cc3)cc2OC)c2cccnc2c1O`, the T/C under setting [5] was 128 % of control.

For `CCOC(=O)c1ccc(NN=NCCF)cc1`, the survivor count is 0 of 5 and 3 of 6 (dose: 50.0 mg/kg/injection, schedule: Q01DX005 (ip), vehicle: distilled water + Tween-80); 0 of 6 (dose: 100.0 mg/kg/injection, schedule: Q01DX005 (ip), vehicle: distilled water + Tween-80); 0 of 6 (dose: 200.0 mg/kg/injection, schedule: Q01DX005 (ip), vehicle: distilled water + Tween-80).

Consider `C=C1C(=O)OC2/C=C(\CO)C3OC3C3OC3(C)CC(OC(=O)/C(=C/C)CO)C12` (stereo not given), for which the T/C is, setting by setting: (dose: 12.5 mg/kg/injection, schedule: Q01DX005 (ip), vehicle: Klucel (hydroxypropylcellulose) (HPC)) 134 % of control; (dose: 25.0 mg/kg/injection, schedule: Q01DX005 (ip), vehicle: Klucel (hydroxypropylcellulose) (HPC)) 93, 95, 97 [5 of 6 alive], 100 % of control. Further, the survivor count by setting is: under setting [6], 0 of 6; under setting [5], 0 of 6.

Regarding `CC1=C(C)C(=O)c2nn(C)nc2C1=O`, the survivor count (dose: 100.0 mg/kg/injection, schedule: Q01DX001 (ip), vehicle: saline with Tween-80) is given as 1 of 6; the survivor count (dose: 200.0 mg/kg/injection, schedule: Q01DX001 (ip), vehicle: saline with Tween-80) is recorded as 0 of 6; the survivor count (dose: 400.0 mg/kg/injection, schedule: Q01DX001 (ip), vehicle: saline with Tween-80) is 0 of 6.

As for `O=C1c2ccccc2-c2c3c(cc4ccnc1c24)OCO3`, the survivor count by setting is: (dose: 12.5 mg/kg/injection, schedule: Q01DX009 (ip), vehicle: saline with Tween-80) 6 of 6; (dose: 25.0 mg/kg/injection, schedule: Q01DX009 (ip), vehicle: saline with Tween-80) 6 of 6.

Turning to `COc1cc2c(cc1OC)-c1c(C)c3ccc(OC)c(NCc4ccccc4)c3c[n+]1CC2`, the survivor count reads like this: (dose: 50.0 mg/kg/injection, schedule: Q04DX003 (ip), vehicle: other) 0 of 6; (dose: 100.0 mg/kg/injection, schedule: Q04DX003 (ip), vehicle: other) 0 of 6; (dose: 200.0 mg/kg/injection, schedule: Q04DX003 (ip), vehicle: other) 0 of 6; (dose: 400.0 mg/kg/injection, schedule: Q04DX003 (ip), vehicle: other) 0 of 6.

Consider `C/C(=C\c1ccccc1)C(=O)C(CN(C)C)CN(C)C`, for which the survivor count is reported as 0 of 6 (dose: 15.0 mg/kg/injection, schedule: Q01DX005 (ip), vehicle: saline); 0 of 6 (dose: 30.0 mg/kg/injection, schedule: Q01DX005 (ip), vehicle: saline); 0 of 6 (dose: 60.0 mg/kg/injection, schedule: Q01DX005 (ip), vehicle: saline); 0 of 6 (dose: 120.0 mg/kg/injection, schedule: Q01DX005 (ip), vehicle: saline); 0 of 6 under setting [3].

`[Cl][Pt+2][Cl].[NH-]C1CCCC1.[NH-]C1CCCC1`: the T/C is 143 % of control (dose: 20.0 mg/kg/injection, schedule: Q01DX009 (ip), vehicle: Klucel (hydroxypropylcellulose) (HPC)) and 144 % of control (dose: 160.0 mg/kg/injection, schedule: Q01DX009 (ip), vehicle: Klucel (hydroxypropylcellulose) (HPC)).

For `CC(C)Cc1cc(C(F)(F)F)nc(NNc2nc(CC(C)C)cc(C(F)(F)F)n2)n1`, the survivor count (dose: 200.0 mg/kg/injection, schedule: Q01DX009 (ip), vehicle: Klucel (hydroxypropylcellulose) (HPC)) was 6 of 6.

On to `[Zn].c1c[nH]cn1.c1c[nH]cn1.c1c[nH]cn1.c1c[nH]cn1`, for which the T/C under setting [7] was 131 % of control. In addition, the survivor count by setting is: under setting [7], 0 of 6 and 5 of 5; under setting [2], 0 of 6.

In the case of `CCCCCCCCCCNC1CC(OC2CC(O)(C(C)=O)Cc3c(O)c4c(c(O)c32)C(=O)c2c(OC)cccc2C4=O)OC(C)C1O` (stereo not given), the survivor count (dose: 75.0 mg/kg/injection, schedule: Q04DX003 (ip), vehicle: water) is 1 of 3 and the survivor count (dose: 150.0 mg/kg/injection, schedule: Q04DX003 (ip), vehicle: water) was 0 of 3.

On to `S=C1CCCCCN1`, for which the survivor count is on record as 0 of 5 under setting [6] and 0 of 5 under setting [5].

With `O=c1[nH]c(=O)c2nc(-c3cccnc3)cnc2[nH]1`, the T/C reads like this: under setting [8], 127 % of control; under setting [1], 138 and 144 % of control. Further, under setting [8], the survivor count is reported as 6 of 6.
